# Assay results published in the supplement of paper PMC11732987, “Enantioselective OTUD7B fragment discovery through chemoproteomics screening and high-throughput optimisation” (Communications Chemistry, 2025).
# By UniProt entry, the sequences of proteins in these tests, tags left out. Where a name states a change or a piece, a line headed by the entry shows the natural chain unless it says otherwise. Residues count along the entry.
# UniProt O60346: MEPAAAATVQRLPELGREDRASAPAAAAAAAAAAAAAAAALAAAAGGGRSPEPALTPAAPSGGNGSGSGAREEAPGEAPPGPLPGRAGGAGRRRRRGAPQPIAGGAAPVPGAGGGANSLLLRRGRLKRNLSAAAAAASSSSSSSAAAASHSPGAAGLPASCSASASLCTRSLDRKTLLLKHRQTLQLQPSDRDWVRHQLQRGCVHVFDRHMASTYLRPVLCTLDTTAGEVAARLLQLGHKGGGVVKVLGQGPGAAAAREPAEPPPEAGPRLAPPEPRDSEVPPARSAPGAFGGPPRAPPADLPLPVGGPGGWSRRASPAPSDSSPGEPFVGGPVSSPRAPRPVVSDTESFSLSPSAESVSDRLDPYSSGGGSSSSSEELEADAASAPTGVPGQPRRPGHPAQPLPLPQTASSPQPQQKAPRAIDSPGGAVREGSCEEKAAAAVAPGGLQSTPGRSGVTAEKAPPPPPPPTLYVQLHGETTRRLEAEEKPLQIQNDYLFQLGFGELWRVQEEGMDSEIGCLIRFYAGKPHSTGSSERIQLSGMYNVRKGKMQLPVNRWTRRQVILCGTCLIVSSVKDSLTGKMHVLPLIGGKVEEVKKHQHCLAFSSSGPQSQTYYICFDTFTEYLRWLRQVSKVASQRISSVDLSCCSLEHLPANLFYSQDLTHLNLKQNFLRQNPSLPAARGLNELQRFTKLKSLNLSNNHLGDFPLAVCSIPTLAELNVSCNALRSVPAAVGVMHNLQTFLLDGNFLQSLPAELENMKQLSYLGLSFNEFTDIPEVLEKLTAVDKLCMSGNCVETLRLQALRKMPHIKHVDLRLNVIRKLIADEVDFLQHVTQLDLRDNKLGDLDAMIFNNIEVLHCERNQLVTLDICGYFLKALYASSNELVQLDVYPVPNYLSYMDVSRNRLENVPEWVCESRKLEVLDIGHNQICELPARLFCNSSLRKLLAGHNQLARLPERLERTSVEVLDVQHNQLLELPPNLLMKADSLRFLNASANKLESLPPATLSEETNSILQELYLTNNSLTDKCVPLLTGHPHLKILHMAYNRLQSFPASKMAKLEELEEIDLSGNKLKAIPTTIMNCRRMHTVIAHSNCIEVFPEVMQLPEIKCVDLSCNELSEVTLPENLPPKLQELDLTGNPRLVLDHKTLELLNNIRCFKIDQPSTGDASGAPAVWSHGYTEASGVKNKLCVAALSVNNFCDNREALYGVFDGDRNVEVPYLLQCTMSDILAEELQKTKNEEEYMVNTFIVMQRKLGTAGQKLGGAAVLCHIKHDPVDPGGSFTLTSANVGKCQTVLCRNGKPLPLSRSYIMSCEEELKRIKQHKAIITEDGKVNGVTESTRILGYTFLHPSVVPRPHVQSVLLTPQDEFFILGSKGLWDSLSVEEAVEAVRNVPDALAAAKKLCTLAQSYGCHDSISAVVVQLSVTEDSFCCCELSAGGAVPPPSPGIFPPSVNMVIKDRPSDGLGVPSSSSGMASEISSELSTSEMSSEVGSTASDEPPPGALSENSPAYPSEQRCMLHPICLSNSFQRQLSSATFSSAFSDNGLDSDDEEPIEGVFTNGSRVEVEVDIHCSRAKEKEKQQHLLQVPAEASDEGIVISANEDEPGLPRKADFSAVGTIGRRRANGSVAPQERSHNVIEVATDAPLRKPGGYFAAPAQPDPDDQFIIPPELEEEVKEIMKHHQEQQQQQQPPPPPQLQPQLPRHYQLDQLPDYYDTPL
# UniProt P78337, whole entry, looked up: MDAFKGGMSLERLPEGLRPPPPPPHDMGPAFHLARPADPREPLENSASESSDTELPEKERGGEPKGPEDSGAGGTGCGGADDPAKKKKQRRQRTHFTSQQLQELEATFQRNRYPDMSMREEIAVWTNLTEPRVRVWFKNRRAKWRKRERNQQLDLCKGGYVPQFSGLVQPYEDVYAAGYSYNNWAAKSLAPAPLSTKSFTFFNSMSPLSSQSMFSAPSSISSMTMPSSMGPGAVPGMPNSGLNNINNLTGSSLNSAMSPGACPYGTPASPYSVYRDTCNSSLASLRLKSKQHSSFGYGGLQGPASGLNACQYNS
# UniProt Q13526, 96-117: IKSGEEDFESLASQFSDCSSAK
# UniProt O15160: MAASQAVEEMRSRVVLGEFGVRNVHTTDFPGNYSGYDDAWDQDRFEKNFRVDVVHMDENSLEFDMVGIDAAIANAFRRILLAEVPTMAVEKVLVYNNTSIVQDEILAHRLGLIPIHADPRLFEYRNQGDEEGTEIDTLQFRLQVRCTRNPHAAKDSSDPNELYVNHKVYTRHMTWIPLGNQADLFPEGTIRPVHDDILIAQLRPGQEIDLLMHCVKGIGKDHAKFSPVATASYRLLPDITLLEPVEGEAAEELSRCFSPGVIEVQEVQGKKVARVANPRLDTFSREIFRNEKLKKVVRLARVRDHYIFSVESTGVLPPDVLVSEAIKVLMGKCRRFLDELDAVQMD
# UniProt P55347: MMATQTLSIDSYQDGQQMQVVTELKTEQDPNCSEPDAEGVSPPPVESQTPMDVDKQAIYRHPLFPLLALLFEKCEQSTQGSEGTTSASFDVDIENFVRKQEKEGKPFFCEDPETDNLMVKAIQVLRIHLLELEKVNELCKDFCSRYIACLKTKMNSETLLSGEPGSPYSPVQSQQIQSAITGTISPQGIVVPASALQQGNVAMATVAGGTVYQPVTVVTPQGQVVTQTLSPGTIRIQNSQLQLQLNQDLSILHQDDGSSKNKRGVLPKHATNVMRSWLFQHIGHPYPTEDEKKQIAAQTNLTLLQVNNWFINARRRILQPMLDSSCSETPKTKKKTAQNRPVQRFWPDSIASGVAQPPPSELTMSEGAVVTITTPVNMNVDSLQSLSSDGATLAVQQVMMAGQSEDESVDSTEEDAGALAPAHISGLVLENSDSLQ
# UniProt Q07864, 1596-1616: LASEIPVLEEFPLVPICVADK
# UniProt P53350: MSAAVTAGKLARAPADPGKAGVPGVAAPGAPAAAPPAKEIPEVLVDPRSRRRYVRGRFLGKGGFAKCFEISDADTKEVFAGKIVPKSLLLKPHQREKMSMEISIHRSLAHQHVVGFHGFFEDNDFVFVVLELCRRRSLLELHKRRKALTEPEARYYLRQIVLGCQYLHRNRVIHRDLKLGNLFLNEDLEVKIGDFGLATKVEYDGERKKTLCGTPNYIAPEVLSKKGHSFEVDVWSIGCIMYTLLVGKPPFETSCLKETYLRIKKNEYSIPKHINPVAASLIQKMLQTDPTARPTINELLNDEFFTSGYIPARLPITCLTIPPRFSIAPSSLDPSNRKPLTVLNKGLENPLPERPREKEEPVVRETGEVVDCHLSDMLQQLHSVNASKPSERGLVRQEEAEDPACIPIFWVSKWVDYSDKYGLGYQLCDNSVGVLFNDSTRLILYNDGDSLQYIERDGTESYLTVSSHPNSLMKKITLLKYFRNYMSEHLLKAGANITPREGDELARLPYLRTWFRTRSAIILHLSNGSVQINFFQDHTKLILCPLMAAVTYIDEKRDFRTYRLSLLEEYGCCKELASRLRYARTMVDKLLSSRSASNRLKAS
# UniProt Q9UNA4: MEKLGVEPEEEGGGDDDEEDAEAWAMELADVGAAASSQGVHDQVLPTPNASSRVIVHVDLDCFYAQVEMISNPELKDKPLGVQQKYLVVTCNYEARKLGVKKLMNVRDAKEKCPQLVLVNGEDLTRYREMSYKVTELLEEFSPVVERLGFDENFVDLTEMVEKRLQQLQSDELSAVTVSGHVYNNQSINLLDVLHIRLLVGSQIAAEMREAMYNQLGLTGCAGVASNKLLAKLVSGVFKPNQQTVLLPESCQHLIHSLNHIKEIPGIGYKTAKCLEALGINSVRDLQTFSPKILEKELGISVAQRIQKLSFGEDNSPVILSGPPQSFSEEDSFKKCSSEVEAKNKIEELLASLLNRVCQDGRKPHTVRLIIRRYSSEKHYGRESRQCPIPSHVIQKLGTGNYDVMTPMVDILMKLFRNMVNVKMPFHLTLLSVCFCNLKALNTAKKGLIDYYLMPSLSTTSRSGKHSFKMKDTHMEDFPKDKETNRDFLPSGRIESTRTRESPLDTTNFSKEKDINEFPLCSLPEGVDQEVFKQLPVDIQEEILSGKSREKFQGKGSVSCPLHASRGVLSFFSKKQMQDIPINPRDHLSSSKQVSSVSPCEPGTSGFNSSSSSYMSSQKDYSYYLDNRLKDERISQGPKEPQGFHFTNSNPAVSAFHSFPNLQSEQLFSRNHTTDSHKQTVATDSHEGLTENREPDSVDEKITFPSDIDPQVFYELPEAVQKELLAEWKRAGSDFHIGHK
# UniProt Q6P1K2: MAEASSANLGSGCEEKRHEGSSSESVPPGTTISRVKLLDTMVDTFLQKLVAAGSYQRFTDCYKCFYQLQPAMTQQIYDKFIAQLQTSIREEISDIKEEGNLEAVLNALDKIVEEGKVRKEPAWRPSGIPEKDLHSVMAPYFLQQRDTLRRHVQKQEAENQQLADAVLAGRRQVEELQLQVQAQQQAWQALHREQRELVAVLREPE
# UniProt Q8TC44: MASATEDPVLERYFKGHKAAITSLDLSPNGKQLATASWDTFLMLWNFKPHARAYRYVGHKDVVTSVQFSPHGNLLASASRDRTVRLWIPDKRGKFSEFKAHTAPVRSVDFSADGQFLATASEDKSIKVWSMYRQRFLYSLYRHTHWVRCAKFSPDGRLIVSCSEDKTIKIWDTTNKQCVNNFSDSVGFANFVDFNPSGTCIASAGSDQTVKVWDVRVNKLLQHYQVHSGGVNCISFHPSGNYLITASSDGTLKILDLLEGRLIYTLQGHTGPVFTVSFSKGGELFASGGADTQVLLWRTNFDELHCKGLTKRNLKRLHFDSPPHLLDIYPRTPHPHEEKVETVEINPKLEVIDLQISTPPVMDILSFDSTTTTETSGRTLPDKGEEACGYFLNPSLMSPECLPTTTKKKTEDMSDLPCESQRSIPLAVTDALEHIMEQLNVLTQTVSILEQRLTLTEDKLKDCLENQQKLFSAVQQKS
# UniProt P19174: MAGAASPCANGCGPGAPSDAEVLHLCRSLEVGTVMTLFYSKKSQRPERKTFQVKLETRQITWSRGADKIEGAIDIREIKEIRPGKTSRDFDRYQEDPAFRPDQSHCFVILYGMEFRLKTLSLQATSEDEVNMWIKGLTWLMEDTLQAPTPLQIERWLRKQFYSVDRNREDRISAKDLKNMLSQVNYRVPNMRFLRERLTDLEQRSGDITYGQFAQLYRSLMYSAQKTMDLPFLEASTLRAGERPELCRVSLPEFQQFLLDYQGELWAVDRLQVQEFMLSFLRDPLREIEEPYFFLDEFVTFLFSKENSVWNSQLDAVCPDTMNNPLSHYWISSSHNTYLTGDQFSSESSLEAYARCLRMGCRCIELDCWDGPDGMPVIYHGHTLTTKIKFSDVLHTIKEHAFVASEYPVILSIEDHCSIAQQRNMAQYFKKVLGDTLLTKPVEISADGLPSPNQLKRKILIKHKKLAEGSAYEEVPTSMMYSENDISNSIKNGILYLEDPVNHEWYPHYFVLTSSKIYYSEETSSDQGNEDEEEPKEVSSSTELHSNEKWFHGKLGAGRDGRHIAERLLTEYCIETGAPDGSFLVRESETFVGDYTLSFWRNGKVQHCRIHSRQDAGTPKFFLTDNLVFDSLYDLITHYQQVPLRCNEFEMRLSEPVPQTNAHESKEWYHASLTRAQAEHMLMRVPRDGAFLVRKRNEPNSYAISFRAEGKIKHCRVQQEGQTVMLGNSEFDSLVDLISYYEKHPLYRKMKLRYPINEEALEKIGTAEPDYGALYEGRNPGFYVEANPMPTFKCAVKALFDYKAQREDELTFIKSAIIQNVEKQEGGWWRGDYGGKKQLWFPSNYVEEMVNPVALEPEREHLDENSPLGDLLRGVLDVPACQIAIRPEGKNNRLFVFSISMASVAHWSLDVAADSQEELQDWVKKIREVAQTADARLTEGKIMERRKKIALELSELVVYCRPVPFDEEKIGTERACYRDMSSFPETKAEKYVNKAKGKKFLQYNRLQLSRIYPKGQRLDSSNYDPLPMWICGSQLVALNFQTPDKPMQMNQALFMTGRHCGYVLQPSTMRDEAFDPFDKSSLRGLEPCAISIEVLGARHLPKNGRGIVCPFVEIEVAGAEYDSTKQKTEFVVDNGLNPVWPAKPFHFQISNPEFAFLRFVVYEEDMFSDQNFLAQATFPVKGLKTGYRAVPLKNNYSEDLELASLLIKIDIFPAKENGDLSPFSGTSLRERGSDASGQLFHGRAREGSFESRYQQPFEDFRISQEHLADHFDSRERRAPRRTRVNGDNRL
# UniProt Q8IY26: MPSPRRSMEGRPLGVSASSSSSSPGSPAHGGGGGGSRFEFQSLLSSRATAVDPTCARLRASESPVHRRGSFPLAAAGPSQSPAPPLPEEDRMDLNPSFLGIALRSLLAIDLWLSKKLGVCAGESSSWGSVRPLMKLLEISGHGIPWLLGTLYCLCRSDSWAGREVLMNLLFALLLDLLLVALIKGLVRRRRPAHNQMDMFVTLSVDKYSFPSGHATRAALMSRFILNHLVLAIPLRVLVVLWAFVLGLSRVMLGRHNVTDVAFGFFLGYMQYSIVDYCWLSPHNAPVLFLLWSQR
# UniProt O60664, 29-50: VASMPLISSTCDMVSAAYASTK
# The list shows a part of the results. The data scatter; read single values as rough.
# Compound: ClCC(=O)N[C@@H]1CCCc2ccccc12
# Test: log2 mean competition ratio of IA-DTB cysteine labelling (DMSO/compound) (log2 ratio); higher = stronger cysteine engagement by compound
# Conditions: 50 µM; treatment time: 4 h; cell line lysate: HEK293T
# Procedure: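 IA-DTB competitive cysteine chemoproteomics in HEK293T RIPA lysate. Lysates were treated with compound 29 or 30 at 50 or 200 µM for 4 h, then IA-DTB (500 µM, 1 h), trypsin-digested, NeutrAvidin-enriched and analysed by diaPASEF. Competition ratio = intensity DMSO / intensity compound (n=4 treated, n=64 DMSO); binding: mean log2 CR ≥ 1 and p ≤ 0.05 plus QC filters. Target is the cysteine site.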
row,Target,log2 mean competition ratio
1,PIGT C182,-0.144
2,PHLPP1 C1312 (UniProt O60346),-0.0375
3,POGLUT3 C156 (UniProt Q7Z4H8),0.229
4,PITX1 C278 (UniProt P78337),-0.0144
5,PIN1 C113 (UniProt Q13526),-0.153
6,POLR1C C256 (UniProt O15160),-0.123
7,PKNOX1 C326 (UniProt P55347),0.298
8,POLE C1612 (UniProt Q07864),0.185
9,POLL C425,-0.235
10,PLK1 C405 (UniProt P53350),-0.38
11,POLI C336 (UniProt Q9UNA4),-0.0815
12,PMF1 C13 (UniProt Q6P1K2),-0.171
13,PHKA1 C1185 (UniProt P46020),-0.19
14,POC1B C306 (UniProt Q8TC44),-0.215
15,POLR1G C14,0.466
16,PLCG1 C881 (UniProt P19174),-0.0852
17,PLPP6 C55 (UniProt Q8IY26),-0.137
18,PIAS1 C228 (UniProt O75925),0.00703
19,PIK3CB C626 (UniProt P42338),-0.0377
20,PLIN3 C39 (UniProt O60664),0.285

# Same assay, conditions: 200 µM; treatment time: 4 h; cell line lysate: HEK293T
row,Target,log2 mean competition ratio
1,PIGT C182,-0.0053
2,PHLPP1 C1312 (UniProt O60346),0.264
3,POGLUT3 C156 (UniProt Q7Z4H8),0.0555
4,PITX1 C278 (UniProt P78337),0.101
5,PIN1 C113 (UniProt Q13526),0.243
6,POLR1C C256 (UniProt O15160),-0.0536
7,PKNOX1 C326 (UniProt P55347),0.249
8,POLE C1612 (UniProt Q07864),0.21
9,POLL C425,0.0644
10,PLK1 C405 (UniProt P53350),-0.417
11,POLI C336 (UniProt Q9UNA4),0.285
12,PMF1 C13 (UniProt Q6P1K2),0.0117
13,PHKA1 C1185 (UniProt P46020),-0.286
14,POC1B C306 (UniProt Q8TC44),-0.0398
15,POLR1G C14,0.0913
16,PLCG1 C881 (UniProt P19174),0.163
17,PLPP6 C55 (UniProt Q8IY26),0.223
18,PIAS1 C228 (UniProt O75925),-0.0041
19,PIK3CB C626 (UniProt P42338),0.0757
20,PLIN3 C39 (UniProt O60664),0.237
